Experimental data: patent publication US20220119450A1
These are yes or no findings as the source states them, for the method shown. Some entries that bind do so weakly or less than the wild type. Where a sequence is shown, tags or fusion partners need not be part of it.

T1: recombinant His-tagged Neuropilin-1 b1b2 domain (UniProt O14786)
T1 sequence (looked up): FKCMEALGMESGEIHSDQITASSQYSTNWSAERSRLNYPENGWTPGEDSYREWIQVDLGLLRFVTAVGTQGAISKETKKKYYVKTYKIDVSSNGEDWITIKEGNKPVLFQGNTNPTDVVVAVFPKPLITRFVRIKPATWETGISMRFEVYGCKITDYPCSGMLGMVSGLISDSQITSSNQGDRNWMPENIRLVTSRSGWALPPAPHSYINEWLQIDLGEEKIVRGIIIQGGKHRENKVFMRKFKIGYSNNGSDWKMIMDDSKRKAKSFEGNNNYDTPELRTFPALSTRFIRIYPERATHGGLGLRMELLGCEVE

B1: PL3-functionalized silver nanoparticles (biotinylated PL3 peptide on NeutrAvidin-coated AgNPs) (peptide)
peptide: AGRGRLVR
modifications: biotinylated; bound to NeutrAvidin on dye-labeled PEGylated silver nanoparticles

Experiments:
[1] = target: T1, recombinant His-tagged Neuropilin-1 b1b2 domain; test: T7 phage binding to purified protein
[2] = target: T1, recombinant His-tagged Neuropilin-1 b1b2 domain; test: nanoparticle binding to recombinant protein
[3] = target: T1, recombinant His-tagged Neuropilin-1 b1b2 domain; test: summary in the discussion
[4] = target: T1, recombinant His-tagged Neuropilin-1 b1b2 domain; test: in vitro binding to NRP1 protein
[5] = target: T1, recombinant His-tagged Neuropilin-1 b1b2 domain; test: summary of phage binding experiments

Row | Binder | binding [1] | binding [2] | binding [3] | binding [4] | binding [5]
1 | TSKQNSR [PL2 peptide displayed on T7 phage (TSKQNSR)] | binds | – | – | – | –
2 | B1 | – | binds | – | – | –
3 | AGRGRLVR [PL3 peptide displayed on T7 phage (AGRGRLVR)] | binds | – | binds | binds | binds
